# Values quoted from earlier work, collected in patent US8592485B2, “Methods and pharmaceutical compositions for treating the animal central nervous system for psychiatric disorders” (HealthPartners Research Foundation, priority 2010, dated 2013).
# At least one compound was matched to its structure with a doubt left.
# Conditions: cited from earlier work
smiles,measurement,value
"CC(=O)N(O)CCCCCNC(=O)CCC(=O)N(O)CCCCCNC(=O)CCC(=O)N(O)CCCCCN [DFO, deferoxamine]",Fe-III binding constant,10^31
